Assay results from PMC10394019.
Results are given in words; binding and its absence hold for the method and conditions named. In cells and extracts the contact can be indirect. Here binding means that the protein was enriched with, or labelled near, the bait; the list need not be complete. Each block holds one molecule with its values, some of them ahead of it.

Chains of the proteins cited; added tags and fusions are not shown.
UniProt Q13616: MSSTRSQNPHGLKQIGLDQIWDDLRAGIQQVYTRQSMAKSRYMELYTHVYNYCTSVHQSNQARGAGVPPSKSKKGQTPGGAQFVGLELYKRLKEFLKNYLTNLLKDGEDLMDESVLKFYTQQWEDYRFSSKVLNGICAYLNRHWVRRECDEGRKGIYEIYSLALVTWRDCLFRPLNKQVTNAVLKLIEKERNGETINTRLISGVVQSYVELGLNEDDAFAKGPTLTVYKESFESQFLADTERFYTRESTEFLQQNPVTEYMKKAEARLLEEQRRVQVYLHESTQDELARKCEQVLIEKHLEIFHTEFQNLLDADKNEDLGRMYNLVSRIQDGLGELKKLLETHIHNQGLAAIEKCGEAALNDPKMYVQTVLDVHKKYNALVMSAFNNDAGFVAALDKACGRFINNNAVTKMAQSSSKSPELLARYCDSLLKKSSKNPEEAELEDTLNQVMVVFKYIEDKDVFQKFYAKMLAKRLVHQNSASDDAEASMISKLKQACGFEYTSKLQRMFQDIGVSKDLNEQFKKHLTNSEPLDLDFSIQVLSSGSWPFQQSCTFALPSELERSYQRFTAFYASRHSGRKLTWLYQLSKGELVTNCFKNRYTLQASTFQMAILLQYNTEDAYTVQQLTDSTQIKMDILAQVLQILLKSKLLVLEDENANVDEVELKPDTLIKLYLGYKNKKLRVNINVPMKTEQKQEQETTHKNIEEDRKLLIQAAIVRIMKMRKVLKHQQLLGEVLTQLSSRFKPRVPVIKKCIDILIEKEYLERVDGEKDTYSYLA
UniProt Q6P3S6: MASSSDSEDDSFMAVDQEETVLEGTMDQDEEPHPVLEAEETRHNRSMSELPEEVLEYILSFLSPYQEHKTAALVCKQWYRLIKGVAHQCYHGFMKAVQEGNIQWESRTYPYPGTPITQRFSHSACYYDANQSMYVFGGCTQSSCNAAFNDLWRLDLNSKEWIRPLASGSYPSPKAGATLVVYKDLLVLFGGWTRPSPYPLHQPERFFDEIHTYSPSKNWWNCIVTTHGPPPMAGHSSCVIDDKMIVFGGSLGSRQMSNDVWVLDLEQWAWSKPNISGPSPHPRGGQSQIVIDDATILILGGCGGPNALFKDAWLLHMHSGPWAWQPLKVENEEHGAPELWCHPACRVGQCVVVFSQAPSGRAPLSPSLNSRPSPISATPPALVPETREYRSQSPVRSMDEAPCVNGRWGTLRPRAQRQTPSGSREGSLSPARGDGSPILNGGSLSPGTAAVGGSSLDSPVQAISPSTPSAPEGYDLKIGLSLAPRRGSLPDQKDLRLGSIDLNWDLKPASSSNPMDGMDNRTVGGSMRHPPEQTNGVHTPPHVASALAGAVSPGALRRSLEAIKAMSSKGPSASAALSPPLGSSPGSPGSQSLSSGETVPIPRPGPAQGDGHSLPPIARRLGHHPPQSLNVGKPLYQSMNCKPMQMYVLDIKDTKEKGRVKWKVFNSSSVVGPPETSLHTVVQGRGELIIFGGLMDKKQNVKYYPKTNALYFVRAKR

Target: Cullin1 (human (endogenous in L02 and THLE-2)) (UniProt Q13616)
Test: affinity purification with mass spectrometry; Co-IP of Cullin1 from lysates of L02 cells treated with PA (0.4 mM, 24 h) and transfected with NC or siCAND1; quantitative mass spectrometry (Orbitrap Fusion)

- binding: binds
Molecule: F-box only protein 42 (FBXO42) (from UniProt Q6P3S6 1-717)

- binding: binds
B1: acetyl-CoA acyltransferase 2 (ACAA2) (enzyme, UniProt P42765 1-397)
chain: MALLRGVFVVAAKRTPFGAYGGLLKDFTATDLSEFAAKAALSAGKVSPETVDSVIMGNVLQSSSDAIYLARHVGLRVGIPKETPALTINRLCGSGFQSIVNGCQEICVKEAEVVLCGGTESMSQAPYCVRNVRFGTKLGSDIKLEDSLWVSLTDQHVQLPMAMTAENLAVKHKISREECDKYALQSQQRWKAANDAGYFNDEMAPIEVKTKKGKQTMQVDEHARPQTTLEQLQKLPPVFKKDGTVTAGNASGVADGAGAVIIASEDAVKKHNFTPLARIVGYFVSGCDPSIMGIGPVPAISGALKKAGLSLKDMDLVEVNEAFAPQYLAVERSLDLDISKTNVNGGAIALGHPLGGSGSRITAHLVHELRRRGGKYAVGSACIGGGQGIAVIIQSTA
